Experimental data as given in publication PMC9408947.
Results are given in words; binding and its absence hold for the method and conditions named. Binding seen in cells or lysates may run through a third protein. These calls come from enrichment with a bait or labelling near it, and not all partners need be listed. Sequences can lack the tags named with a protein. Blank lines part the entries; values can stand above or below the molecule they belong to.

Amino acid sequences for entries named in this document (tags omitted). Residues count along the entry.
UniProt Q49AH0, residues 25-187: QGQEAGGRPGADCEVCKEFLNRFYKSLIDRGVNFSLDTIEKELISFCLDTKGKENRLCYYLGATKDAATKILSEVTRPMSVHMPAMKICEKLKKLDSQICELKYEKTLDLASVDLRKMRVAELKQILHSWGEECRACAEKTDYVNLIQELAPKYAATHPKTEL
UniProt P11021, residues 19-654: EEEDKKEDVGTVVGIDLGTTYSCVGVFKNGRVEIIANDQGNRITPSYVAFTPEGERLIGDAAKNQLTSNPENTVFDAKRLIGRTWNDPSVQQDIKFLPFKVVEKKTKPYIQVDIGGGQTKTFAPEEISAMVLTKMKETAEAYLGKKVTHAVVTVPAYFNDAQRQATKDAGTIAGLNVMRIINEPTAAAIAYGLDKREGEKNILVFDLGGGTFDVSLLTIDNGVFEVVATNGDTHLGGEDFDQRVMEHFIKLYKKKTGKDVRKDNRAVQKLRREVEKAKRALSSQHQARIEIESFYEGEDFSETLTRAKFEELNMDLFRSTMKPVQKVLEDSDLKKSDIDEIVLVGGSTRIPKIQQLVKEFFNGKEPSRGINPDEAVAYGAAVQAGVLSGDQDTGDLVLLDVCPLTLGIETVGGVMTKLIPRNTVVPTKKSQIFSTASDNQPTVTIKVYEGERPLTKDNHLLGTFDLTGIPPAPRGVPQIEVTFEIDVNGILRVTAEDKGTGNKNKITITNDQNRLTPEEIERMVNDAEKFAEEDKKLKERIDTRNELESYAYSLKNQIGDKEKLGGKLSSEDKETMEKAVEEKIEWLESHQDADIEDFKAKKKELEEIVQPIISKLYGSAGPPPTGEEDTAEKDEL

Key:
[1] = molecular target: SH-tagged CDNF (cerebral dopamine neurotrophic factor with Twin-StrepII and HA tags) (human) (UniProt Q49AH0); assay: affinity purification with mass spectrometry; SH-CDNF as bait from lysate of doxycycline-induced HEK293 SH-CDNF cells (HENN buffer, 0.5% NP40, 150 mM NaCl, pH 8.0), held on Strep-Tactin beads, eluted with 1 mM D-biotin; SH-GFP cell line as control; FDR <= 0.001, S0 = 2
[2] = molecular target: SH-tagged CDNF (cerebral dopamine neurotrophic factor with Twin-StrepII and HA tags) (human) (UniProt Q49AH0); assay: affinity purification with mass spectrometry; SH-CDNF as bait from lysate of doxycycline-induced INS1 SH-CDNF cells (HENN buffer, 0.5% NP40, 150 mM NaCl, pH 8.0), held on Strep-Tactin beads, eluted with 1 mM D-biotin; SH-GFP cell line as control; FDR <= 0.001, S0 = 2

binding [1]: binds
Molecule: GRP78 (endogenous, HEK293) (from UniProt P11021 19-654)

binding [2]: binds
B1: glucose-regulated protein 170 kDa (endogenous, INS1) (protein, UniProt Q63617 33-999)
chain: LAVMSVDLGSESMKVAIVKPGVPMEIVLNKESRRKTPVTVTLKENERFLGDSAAGMAIKNPKATLRYFQHLLGKQADNPHVALYRSRFPEHELNVDPQRQTVRFQISPQLQFSPEEVLGMVLNYSRSLAEDFAEQPIKDAVITVPAFFNQAERRAVLQAARMAGLKVLQLINDNTATALSYGVFRRKDINSTAQNIMFYDMGSGSTVCTIVTYQTVKTKEAGTQPQLQIRGVGFDRTLGGLEMELRLREHLAKLFNEQRKGQKAKDVRENPRAMAKLLREANRLKTVLSANADHMAQIEGLMDDVDFKAKVTRVEFEELCADLFDRVPGPVQQALQSAEMSLDQIEQVILVGGPTRVPKVQEVLLKPVGKEELGKNINADEAAAMGAVYQAAALSKAFKVKPFVVRDAVIYPILVEFTREVEEEPGLRSLKHNKRVLFSRMGPYPQRKVITFNRYSHDFNFHINYGDLGFLGPEDLRVFGSQNLTTVKLKGVGESFKKYPDYESKGIKAHFNLDESGVLSLDRVESVFETLVEDSPEEESTLTKLGNTISSLFGGGTSSDAKENGTDAVQEEEESPAEGSKDEPAEQGELKEEAEAPMEDTSQPPPSEPKGDAAREGETPDEKESGDKSEAQKPNEKGQAGPEGVPPAPEEEKKQKPARKQKMVEEIGVELAVLDLPDLPEDELAHSVQKLEDLTLRDLEKQEREKAANSLEAFIFETQDKLYQPEYQEVSTEEQREEISGKLSATSTWLEDEGFGATTVMLKDKLAELRKLCQGLFFRVEERRKWPERLSALDNLLNHSSIFLKGARLIPEMDQIFTDVEMTTLEKVINDTWTWKNATLAEQAKLPATEKPVLLSKDIEAKMMALDREVQYLLNKAKFTKPRPRPKDKNGTRTEPPLNASAGDQEEKVIPPTGQTEEAKAILEPDKEGLGTEAADSEPLELGGPGAESEQAEQTAGQKRPLKNDEL

binding [1]: binds
B2: glucose-regulated protein 170 kDa (endogenous, HEK293) (protein, UniProt Q9Y4L1 33-999)
chain: LAVMSVDLGSESMKVAIVKPGVPMEIVLNKESRRKTPVIVTLKENERFFGDSAASMAIKNPKATLRYFQHLLGKQADNPHVALYQARFPEHELTFDPQRQTVHFQISSQLQFSPEEVLGMVLNYSRSLAEDFAEQPIKDAVITVPVFFNQAERRAVLQAARMAGLKVLQLINDNTATALSYGVFRRKDINTTAQNIMFYDMGSGSTVCTIVTYQMVKTKEAGMQPQLQIRGVGFDRTLGGLEMELRLRERLAGLFNEQRKGQRAKDVRENPRAMAKLLREANRLKTVLSANADHMAQIEGLMDDVDFKAKVTRVEFEELCADLFERVPGPVQQALQSAEMSLDEIEQVILVGGATRVPRVQEVLLKAVGKEELGKNINADEAAAMGAVYQAAALSKAFKVKPFVVRDAVVYPILVEFTREVEEEPGIHSLKHNKRVLFSRMGPYPQRKVITFNRYSHDFNFHINYGDLGFLGPEDLRVFGSQNLTTVKLKGVGDSFKKYPDYESKGIKAHFNLDESGVLSLDRVESVFETLVEDSAEEESTLTKLGNTISSLFGGGTTPDAKENGTDTVQEEEESPAEGSKDEPGEQVELKEEAEAPVEDGSQPPPPEPKGDATPEGEKATEKENGDKSEAQKPSEKAEAGPEGVAPAPEGEKKQKPARKRRMVEEIGVELVVLDLPDLPEDKLAQSVQKLQDLTLRDLEKQEREKAANSLEAFIFETQDKLYQPEYQEVSTEEQREEISGKLSAASTWLEDEGVGATTVMLKEKLAELRKLCQGLFFRVEERKKWPERLSALDNLLNHSSMFLKGARLIPEMDQIFTEVEMTTLEKVINETWAWKNATLAEQAKLPATEKPVLLSKDIEAKMMALDREVQYLLNKAKFTKPRPRPKDKNGTRAEPPLNASASDQGEKVIPPAGQTEDAEPISEPEKVETGSEPGDTEPLELGGPGAEPEQKEQSTGQKRPLKNDEL
